Reference: PMC8349660
Results are given in words; binding and its absence hold for the method and conditions named. Binding seen in cells or lysates may run through a third protein. These calls come from enrichment with a bait or labelling near it, and not all partners need be listed. No binding means not detected with the bait.

The chains behind the UniProt entries cited, without tags or fusion partners.
UniProt Q9H6U6: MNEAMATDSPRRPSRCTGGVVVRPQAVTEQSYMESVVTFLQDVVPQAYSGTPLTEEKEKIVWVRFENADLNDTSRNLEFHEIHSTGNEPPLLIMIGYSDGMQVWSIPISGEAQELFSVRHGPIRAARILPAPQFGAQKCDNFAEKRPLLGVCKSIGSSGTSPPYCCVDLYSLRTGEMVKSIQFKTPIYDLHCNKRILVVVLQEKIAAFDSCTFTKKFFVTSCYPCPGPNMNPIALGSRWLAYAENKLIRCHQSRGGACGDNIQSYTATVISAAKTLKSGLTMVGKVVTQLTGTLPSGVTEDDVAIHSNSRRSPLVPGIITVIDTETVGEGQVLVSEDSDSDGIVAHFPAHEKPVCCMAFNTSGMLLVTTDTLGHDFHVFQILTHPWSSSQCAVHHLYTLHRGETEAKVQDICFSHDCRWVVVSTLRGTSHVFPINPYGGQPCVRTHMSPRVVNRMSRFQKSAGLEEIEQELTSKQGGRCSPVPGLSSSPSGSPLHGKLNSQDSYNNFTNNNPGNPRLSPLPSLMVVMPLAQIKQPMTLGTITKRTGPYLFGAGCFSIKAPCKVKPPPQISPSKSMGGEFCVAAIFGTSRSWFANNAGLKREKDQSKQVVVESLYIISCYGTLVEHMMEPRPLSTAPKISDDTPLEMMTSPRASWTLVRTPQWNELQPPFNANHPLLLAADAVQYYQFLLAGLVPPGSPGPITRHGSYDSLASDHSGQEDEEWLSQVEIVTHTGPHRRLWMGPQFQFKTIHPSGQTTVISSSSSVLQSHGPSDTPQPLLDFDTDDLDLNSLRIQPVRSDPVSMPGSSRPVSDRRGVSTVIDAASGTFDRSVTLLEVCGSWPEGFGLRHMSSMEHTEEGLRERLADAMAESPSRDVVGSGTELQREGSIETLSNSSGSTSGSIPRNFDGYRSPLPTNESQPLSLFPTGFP
UniProt P08670: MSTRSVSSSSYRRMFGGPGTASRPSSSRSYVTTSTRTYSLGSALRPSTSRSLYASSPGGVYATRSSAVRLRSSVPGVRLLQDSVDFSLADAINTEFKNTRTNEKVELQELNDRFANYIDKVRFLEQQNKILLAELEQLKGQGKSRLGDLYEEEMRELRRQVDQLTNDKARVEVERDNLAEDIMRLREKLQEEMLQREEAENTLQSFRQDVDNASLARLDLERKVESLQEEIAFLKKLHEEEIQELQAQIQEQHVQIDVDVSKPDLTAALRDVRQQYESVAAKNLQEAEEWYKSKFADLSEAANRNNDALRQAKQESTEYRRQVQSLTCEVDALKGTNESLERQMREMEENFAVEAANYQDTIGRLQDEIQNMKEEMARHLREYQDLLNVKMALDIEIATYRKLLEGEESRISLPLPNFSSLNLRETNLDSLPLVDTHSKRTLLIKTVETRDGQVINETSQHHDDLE
UniProt P15924: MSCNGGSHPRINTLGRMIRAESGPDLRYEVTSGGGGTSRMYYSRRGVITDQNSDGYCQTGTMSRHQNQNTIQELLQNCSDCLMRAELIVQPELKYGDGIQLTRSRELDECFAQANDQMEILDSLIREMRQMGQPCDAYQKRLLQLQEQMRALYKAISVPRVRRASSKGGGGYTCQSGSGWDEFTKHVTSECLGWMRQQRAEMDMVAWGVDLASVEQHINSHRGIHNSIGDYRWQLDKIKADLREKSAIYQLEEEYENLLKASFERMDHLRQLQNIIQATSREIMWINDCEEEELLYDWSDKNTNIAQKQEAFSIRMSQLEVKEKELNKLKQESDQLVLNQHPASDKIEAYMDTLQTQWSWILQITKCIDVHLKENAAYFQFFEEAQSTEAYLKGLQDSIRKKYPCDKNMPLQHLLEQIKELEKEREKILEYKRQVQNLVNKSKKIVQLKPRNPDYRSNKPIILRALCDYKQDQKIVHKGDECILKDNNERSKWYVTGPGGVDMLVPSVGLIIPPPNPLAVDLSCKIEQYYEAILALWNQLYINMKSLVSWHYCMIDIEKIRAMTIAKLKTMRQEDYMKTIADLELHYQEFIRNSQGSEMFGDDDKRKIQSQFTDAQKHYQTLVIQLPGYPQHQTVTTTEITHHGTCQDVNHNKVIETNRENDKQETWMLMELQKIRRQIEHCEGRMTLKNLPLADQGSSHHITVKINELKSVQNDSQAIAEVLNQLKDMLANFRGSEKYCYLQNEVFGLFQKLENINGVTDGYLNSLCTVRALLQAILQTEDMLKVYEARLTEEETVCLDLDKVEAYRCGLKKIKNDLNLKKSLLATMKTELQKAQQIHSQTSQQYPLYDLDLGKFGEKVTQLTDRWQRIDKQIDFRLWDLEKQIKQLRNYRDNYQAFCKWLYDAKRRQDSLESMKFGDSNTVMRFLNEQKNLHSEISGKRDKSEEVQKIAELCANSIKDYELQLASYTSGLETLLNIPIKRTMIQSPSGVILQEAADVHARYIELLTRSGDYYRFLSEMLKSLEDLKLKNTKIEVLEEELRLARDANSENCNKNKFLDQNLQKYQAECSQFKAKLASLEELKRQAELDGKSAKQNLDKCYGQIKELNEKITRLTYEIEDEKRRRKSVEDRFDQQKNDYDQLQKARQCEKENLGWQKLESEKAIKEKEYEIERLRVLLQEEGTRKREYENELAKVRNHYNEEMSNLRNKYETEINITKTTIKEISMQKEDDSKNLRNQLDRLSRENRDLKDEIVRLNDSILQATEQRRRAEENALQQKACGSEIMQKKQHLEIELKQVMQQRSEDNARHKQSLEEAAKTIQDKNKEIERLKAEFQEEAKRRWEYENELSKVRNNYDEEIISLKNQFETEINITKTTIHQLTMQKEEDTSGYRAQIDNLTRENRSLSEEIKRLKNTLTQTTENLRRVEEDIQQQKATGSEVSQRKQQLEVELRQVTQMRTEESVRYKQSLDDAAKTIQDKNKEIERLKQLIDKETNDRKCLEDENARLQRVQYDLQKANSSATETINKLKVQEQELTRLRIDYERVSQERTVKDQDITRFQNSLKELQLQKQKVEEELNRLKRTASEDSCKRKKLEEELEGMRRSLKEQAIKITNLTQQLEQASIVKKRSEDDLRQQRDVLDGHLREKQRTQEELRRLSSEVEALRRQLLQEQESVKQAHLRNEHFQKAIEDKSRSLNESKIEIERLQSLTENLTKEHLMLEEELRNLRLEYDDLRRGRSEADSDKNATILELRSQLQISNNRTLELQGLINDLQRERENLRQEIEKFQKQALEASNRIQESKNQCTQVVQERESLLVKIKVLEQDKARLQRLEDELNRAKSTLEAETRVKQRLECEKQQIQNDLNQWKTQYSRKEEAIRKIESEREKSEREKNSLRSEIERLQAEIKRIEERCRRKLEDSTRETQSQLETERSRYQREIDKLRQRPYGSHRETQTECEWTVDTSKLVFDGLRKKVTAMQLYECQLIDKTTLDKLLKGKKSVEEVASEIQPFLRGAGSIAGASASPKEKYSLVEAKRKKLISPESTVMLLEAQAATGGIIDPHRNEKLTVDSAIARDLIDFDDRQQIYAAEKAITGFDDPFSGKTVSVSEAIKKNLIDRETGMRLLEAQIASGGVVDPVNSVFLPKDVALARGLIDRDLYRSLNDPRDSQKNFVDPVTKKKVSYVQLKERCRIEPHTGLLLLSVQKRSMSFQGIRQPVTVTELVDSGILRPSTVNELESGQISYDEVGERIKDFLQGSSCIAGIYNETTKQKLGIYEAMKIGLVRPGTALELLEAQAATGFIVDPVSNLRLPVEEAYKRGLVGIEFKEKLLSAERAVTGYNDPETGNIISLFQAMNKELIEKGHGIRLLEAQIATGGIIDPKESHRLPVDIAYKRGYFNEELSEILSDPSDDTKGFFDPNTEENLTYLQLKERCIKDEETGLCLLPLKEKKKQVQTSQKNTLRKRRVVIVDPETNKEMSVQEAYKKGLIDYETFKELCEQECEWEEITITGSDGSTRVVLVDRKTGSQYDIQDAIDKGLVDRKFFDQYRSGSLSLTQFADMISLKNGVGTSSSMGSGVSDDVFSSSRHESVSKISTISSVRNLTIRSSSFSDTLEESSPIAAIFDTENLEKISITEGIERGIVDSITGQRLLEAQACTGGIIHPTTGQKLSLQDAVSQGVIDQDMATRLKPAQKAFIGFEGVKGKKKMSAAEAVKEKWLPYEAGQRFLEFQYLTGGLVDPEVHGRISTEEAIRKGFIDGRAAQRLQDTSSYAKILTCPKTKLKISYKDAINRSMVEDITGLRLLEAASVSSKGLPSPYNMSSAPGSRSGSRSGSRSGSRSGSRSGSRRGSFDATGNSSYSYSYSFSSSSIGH
UniProt P52732: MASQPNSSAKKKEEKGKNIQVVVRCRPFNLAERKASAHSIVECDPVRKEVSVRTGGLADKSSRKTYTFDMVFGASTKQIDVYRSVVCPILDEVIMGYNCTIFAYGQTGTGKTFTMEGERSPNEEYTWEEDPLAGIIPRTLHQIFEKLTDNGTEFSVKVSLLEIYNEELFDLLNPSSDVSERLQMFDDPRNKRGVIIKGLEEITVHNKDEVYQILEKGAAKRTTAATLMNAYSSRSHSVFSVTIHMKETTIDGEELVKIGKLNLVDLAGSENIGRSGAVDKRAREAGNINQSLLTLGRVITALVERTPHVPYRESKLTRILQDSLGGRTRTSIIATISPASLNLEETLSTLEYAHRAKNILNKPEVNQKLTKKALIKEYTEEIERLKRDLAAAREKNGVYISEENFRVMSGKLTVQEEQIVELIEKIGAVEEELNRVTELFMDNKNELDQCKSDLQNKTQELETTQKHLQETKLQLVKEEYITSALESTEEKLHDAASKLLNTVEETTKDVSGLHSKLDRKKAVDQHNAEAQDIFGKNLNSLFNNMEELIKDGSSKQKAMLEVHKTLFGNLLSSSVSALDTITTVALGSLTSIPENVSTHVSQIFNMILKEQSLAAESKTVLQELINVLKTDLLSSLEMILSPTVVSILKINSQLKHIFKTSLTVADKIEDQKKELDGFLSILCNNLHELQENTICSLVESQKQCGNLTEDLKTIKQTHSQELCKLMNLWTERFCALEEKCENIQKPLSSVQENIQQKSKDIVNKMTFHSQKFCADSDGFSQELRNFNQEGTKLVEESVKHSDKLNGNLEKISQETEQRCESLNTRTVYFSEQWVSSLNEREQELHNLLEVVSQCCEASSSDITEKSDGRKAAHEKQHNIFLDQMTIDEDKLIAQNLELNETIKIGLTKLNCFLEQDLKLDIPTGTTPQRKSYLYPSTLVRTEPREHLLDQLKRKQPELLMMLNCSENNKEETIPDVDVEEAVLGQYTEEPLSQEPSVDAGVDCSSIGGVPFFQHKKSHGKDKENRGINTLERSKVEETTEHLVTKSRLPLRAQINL
UniProt Q00987: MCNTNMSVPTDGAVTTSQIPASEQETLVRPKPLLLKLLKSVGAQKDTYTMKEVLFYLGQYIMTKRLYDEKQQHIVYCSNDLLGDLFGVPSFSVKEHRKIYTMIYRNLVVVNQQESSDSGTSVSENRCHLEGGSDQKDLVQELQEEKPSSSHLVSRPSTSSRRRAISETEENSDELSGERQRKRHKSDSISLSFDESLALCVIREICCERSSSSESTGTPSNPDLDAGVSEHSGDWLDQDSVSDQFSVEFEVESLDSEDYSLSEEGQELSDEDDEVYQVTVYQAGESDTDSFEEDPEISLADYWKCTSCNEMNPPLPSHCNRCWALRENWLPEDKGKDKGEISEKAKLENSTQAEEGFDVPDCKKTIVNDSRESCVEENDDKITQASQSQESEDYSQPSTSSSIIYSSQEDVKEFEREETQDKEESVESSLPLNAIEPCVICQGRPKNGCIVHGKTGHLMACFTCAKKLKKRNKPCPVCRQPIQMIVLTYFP

B1: BAG5 (protein, UniProt Q9UL15 1-447)
chain: MDMGNQHPSISRLQEIQKEVKSVEQQVIGFSGLSDDKNYKKLERILTKQLFEIDSVDTEGKGDIQQARKRAAQETERLLKELEQNANHPHRIEIQNIFEEAQSLVREKIVPFYNGGNCVTDEFEEGIQDIILRLTHVKTGGKISLRKARYHTLTKICAVQEIIEDCMKKQPSLPLSEDAHPSVAKINFVMCEVNKARGVLIALLMGVNNNETCRHLSCVLSGLIADLDALDVCGRTEIRNYRREVVEDINKLLKYLDLEEEADTTKAFDLRQNHSILKIEKVLKRMREIKNELLQAQNPSELYLSSKTELQGLIGQLDEVSLEKNPCIREARRRAVIEVQTLITYIDLKEALEKRKLFACEEHPSHKAVWNVLGNLSEIQGEVLSFDGNRTDKNYIRLEELLTKQLLALDAVDPQGEEKCKAARKQAVRLAQNILSYLDLKSDEWEY

target: FLAG-tagged BCAS3 (breast cancer-amplified sequence 3) (human) (UniProt Q9H6U6); assay: affinity purification with mass spectrometry; FLAG-BCAS3 from HEK 293T cellular extracts bound to anti-FLAG M2 affinity gel, washed with cold lysis buffer, eluted with FLAG peptide 0.2 mg/mL, silver-stained bands cut, LC-MS/MS

binding	Molecule
binds	vimentin (from UniProt P08670 1-466)
binds	DSP (from UniProt P15924 1-2871)
binds	KIF11 (from UniProt P52732 1-1056)
binds	p53 (from UniProt P04637 1-393)
no binding	MDM2 (from UniProt Q00987 1-491)
binds	B1
